PubChem BioAssay AID1224830 | NIAID, 2016
In all, the deposit lists about 18,000 reagents; shown is a random part of them. About 2,900 of all reagents (16%) were called active. 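Calls are made per well; low scores hint the gene aids the LPS response, high scores that it dampens it.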 Repeated entries: four replicate wells of each siRNA pool.

Purpose: 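Host factors that control LPS-induced TNF expression in human macrophages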 (primary screen)
Cells: human THP-1 monocytic leukaemia cells, TNF dual-luciferase reporter clone, PMA-differentiated to macrophage-like cells
Reagents: siRNA pool against human genes, 50 nM
Time to read-out: LPS for 4 h, given about 3 days after siRNA transfection
Treatment: bacterial LPS (TLR4 ligand), 10 ng/ml
Read-out: 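TNF firefly reporter luminescence divided by renilla, normalised to the plate median, then turned into a robust z-score for each replicate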
Scale: TNF reporter robust z-score: higher = stronger TNF reporter response to LPS
Rule for the call: 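Each well counts as active if its z-score is over 2.8 or under -1.5; controls are left without a call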

For CTBP1-DT, the values are TNF reporter robust z-score -0.57; inactive.
Silencing of CTBP1-DT gave: TNF reporter robust z-score 0.17; inactive.
Silencing of CTBP1-DT came out at: TNF reporter robust z-score -0.73; inactive.
Against CTBP1-DT, the entry reads TNF reporter robust z-score 0.23; inactive.
After knock-down of OR1K1, the screen gave TNF reporter robust z-score 1.47; inactive.
OR1K1 gave TNF reporter robust z-score 1.22; inactive.
OR1K1 scored TNF reporter robust z-score 0.63; inactive.
After knock-down of OR1K1, the screen gave TNF reporter robust z-score 0.41; inactive.
For SPATC1, the values are TNF reporter robust z-score 0.04; inactive.
Depletion of SPATC1 gave: TNF reporter robust z-score -1.11; inactive.
After knock-down of SPATC1, the record shows TNF reporter robust z-score 0.86; inactive.
Depletion of SPATC1 came out at: TNF reporter robust z-score 0; inactive.
Against PDZD8 the deposit lists TNF reporter robust z-score 0.06; inactive.
Knock-down of PDZD8 came out at: TNF reporter robust z-score 1.25; inactive.
After knock-down of PDZD8 the results were TNF reporter robust z-score -0.66; inactive.
After knock-down of PDZD8 the results were TNF reporter robust z-score -0.89; inactive.
For QRFP, the entry reads TNF reporter robust z-score -0.66; inactive.
Against QRFP, the entry reads TNF reporter robust z-score -0.24; inactive.
For QRFP, the values are TNF reporter robust z-score -0.83; inactive.
QRFP gave TNF reporter robust z-score 1.26; inactive.
UQCC1 showed TNF reporter robust z-score -0.16; inactive.
UQCC1 gave TNF reporter robust z-score -0.3; inactive.
Silencing of UQCC1 gave: TNF reporter robust z-score -0.96; inactive.
After knock-down of UQCC1, the screen gave TNF reporter robust z-score 0.06; inactive.
Depletion of MBOAT1 gave: TNF reporter robust z-score -0.08; inactive.
For MBOAT1, the entry reads TNF reporter robust z-score -0.19; inactive.
After knock-down of MBOAT1 the results were TNF reporter robust z-score 0.01; inactive.
Knock-down of MBOAT1 came out at: TNF reporter robust z-score 0.2; inactive.
For PTPRN2, the entry reads TNF reporter robust z-score 0.36; inactive.
PTPRN2 scored TNF reporter robust z-score -0.65; inactive.
Silencing of PTPRN2 came out at: TNF reporter robust z-score -0.17; inactive.
Against PTPRN2, the entry reads TNF reporter robust z-score -0.89; inactive.
For PKM, the values are TNF reporter robust z-score 1.81; inactive.
Knock-down of PKM gave: TNF reporter robust z-score 5.33; active.
Against PKM the deposit lists TNF reporter robust z-score 1.34; inactive.
PKM gave TNF reporter robust z-score 1.27; inactive.
With knock-down of CST1, the record shows TNF reporter robust z-score 1.31; inactive.
CST1 scored TNF reporter robust z-score 0.05; inactive.
With knock-down of CST1 the results were TNF reporter robust z-score 0.35; inactive.
Against CST1 the deposit lists TNF reporter robust z-score -0.21; inactive.
Against TLR7, the values are TNF reporter robust z-score 0.34; inactive.
Depletion of TLR7 came out at: TNF reporter robust z-score -0.44; inactive.
Against TLR7 the deposit lists TNF reporter robust z-score 0.88; inactive.
Against TLR7 the deposit lists TNF reporter robust z-score -0.18; inactive.
With knock-down of USP13, the screen gave TNF reporter robust z-score -1.97; active.
USP13 showed TNF reporter robust z-score -1.74; active.
After knock-down of USP13 the results were TNF reporter robust z-score -1.93; active.
With knock-down of USP13, the record shows TNF reporter robust z-score -1; inactive.
Silencing of MS4A13 gave: TNF reporter robust z-score -1.31; inactive.
Against MS4A13, the values are TNF reporter robust z-score -0.95; inactive.
Against MS4A13, the values are TNF reporter robust z-score -0.62; inactive.
With knock-down of MS4A13, the screen gave TNF reporter robust z-score 0.49; inactive.
After knock-down of MYOF, the screen gave TNF reporter robust z-score -1.27; inactive.
MYOF gave TNF reporter robust z-score -0.73; inactive.
For MYOF the deposit lists TNF reporter robust z-score -0.13; inactive.
Silencing of ANXA7 resulted in: TNF reporter robust z-score 2.21; inactive.
Against ANXA7 the deposit lists TNF reporter robust z-score 0.7; inactive.
For ANXA7, the entry reads TNF reporter robust z-score 1.11; inactive.
ANXA7 scored TNF reporter robust z-score -0.55; inactive.
Against GOLGA1, the values are TNF reporter robust z-score 3.4; active.
For GOLGA1 the deposit lists TNF reporter robust z-score 0.56; inactive.
GOLGA1 scored TNF reporter robust z-score -1.08; inactive.
For GOLGA1 the deposit lists TNF reporter robust z-score 0.9; inactive.

A stretch taken from the entries so far, for reference:
TLR7 — TNF reporter robust z-score: 0.88; Outcome: inactive
TLR7 — TNF reporter robust z-score: -0.18; Outcome: inactive
USP13 — TNF reporter robust z-score: -1.97; Outcome: active
USP13 — TNF reporter robust z-score: -1.74; Outcome: active
USP13 — TNF reporter robust z-score: -1.93; Outcome: active
USP13 — TNF reporter robust z-score: -1; Outcome: inactive
MS4A13 — TNF reporter robust z-score: -1.31; Outcome: inactive
MS4A13 — TNF reporter robust z-score: -0.95; Outcome: inactive
